Source: paper PMC6935199
These are yes or no findings as the source states them, for the method shown. Binding seen in cells or lysates may run through a third protein. Some entries that bind do so weakly or less than the wild type.

Amino acid sequences for entries named in this document (tags omitted). Residues count along the entry.
UniProt O75197, residues 32-1615: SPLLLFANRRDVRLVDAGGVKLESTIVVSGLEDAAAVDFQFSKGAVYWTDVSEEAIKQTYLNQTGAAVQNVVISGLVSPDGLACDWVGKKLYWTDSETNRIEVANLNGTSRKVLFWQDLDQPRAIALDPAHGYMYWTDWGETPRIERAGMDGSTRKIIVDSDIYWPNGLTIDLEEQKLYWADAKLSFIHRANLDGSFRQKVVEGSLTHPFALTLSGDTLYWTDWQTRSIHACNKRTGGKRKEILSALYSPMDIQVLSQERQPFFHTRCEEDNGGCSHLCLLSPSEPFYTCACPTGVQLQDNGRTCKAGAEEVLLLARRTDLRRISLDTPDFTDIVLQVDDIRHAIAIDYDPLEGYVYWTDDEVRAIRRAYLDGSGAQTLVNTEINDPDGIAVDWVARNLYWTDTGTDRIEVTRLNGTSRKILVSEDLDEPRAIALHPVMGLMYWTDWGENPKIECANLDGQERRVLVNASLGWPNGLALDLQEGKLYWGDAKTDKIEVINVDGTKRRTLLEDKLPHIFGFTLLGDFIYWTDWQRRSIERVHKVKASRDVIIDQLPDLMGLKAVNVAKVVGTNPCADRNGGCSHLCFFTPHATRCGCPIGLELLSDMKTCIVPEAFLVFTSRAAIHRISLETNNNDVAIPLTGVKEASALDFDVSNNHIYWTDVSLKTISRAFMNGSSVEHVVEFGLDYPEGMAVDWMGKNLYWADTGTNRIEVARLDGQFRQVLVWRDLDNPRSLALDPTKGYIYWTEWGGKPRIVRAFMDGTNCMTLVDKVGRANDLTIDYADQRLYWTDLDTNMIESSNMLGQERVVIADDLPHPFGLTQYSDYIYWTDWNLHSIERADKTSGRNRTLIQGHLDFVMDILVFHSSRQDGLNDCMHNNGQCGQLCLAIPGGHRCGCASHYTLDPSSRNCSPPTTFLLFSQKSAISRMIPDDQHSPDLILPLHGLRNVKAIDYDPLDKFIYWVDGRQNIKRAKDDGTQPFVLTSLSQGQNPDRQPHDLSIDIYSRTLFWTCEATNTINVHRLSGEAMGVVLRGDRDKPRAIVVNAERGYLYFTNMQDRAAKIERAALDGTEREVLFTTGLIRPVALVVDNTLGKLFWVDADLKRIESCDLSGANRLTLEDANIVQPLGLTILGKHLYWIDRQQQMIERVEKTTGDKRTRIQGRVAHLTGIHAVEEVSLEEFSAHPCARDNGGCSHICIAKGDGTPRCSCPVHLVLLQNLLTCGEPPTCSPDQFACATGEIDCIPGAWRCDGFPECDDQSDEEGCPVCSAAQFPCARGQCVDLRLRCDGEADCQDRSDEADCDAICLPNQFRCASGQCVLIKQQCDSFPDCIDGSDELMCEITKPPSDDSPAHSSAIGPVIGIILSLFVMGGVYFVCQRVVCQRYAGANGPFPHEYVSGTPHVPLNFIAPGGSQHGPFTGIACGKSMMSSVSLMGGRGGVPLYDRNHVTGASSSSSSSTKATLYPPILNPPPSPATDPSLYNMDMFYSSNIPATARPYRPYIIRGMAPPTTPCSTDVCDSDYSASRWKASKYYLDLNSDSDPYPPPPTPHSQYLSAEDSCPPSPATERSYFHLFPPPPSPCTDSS

Target: T1, Nucleoporin 37 (UniProt Q8NFH4)
T1 sequence: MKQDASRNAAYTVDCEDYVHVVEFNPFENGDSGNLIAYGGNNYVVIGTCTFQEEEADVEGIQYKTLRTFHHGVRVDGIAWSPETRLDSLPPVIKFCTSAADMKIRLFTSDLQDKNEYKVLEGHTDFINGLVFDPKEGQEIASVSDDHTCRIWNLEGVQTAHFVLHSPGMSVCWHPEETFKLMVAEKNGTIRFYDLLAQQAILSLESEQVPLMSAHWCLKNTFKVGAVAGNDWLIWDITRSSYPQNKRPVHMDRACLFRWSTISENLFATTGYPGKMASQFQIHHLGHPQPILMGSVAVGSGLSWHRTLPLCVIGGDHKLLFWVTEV
Assay: co-IP; plasmids transiently transfected into HEK293 cells for 48 h; NP-40 lysis buffer; IP with Anti-Flag M2 Affinity Gel or anti-c-Myc agarose, mouse IgG agarose as negative control; 4 °C for 2 h; washed with TBST; Western blot

binding: binds
Substance: Low-density lipoprotein-related receptor 5 (from UniProt O75197 32-1615)
